Step yield data for 4 substances are collected here from US4288432A (Richter Gedeon Vegyeszeti Gyar Rt., priority 1979, dated 1981).

A short description of this series: general procedure: solution-phase peptide synthesis; isobutyl chloroformate / N-methyl-morpholine (mixed anhydride); 2,4,5-trichlorop. Particulars: late stage modification step, acetate hydrate.
“Amidino-L-tyrosyl-D-methionyl-glycyl-L-phenylalanine amide acetate hydrate” gave a step yield of 80%. Under “Amidino-L-tyrosyl-D-methionyl-glycyl-L-phenylalanyl-L-proline amide acetate hydrate” stands 80%; under “Amidino-L-tyrosyl-D-norleucyl-glycyl-L-phenylalanine amide acetate hydrate”, 75%; under “Amidino-L-tyrosyl-D-norleucyl-glycyl-L-phenylalanyl-L-proline amide acetate hydrate”, 80%.
